Data source: PubChem BioAssay AID686943 (Drosophila RNAi Screening Center, 2013)

- Screen: 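Fly genes whose loss alters ERK activation after insulin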 (primary screen)
- Cells: Drosophila S2R+ haemocyte-like cells expressing YFP-tagged ERK (Rolled)
- Reagent: long dsRNA against Drosophila genes
- Conditions: insulin stimulation versus unstimulated cells; dose and duration not given
- Read-out: 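Antibody staining for doubly phosphorylated ERK divided by ERK-YFP signal, as plate z-scores, in insulin-treated and untreated cells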
- Scale: replicate 1, z-score of dpERK with insulin and replicate 2, z-score of dpERK with insulin: higher = more active ERK per ERK-YFP after insulin
The screen tested about 23,000 reagents; shown is a random part of those with a known target gene and a result. 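Extra replicates exist only for a retested subset of genes; insulin dose and duration not given; both raised and lowered dpERK matter.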 Reagents against one gene are numbered here. Further read-outs or replicates are left out here. Reagent sequences are not shown. The record does not give: the amount of reagent, the time to read-out.

CG8012 (GeneID 50305) showed replicate 1, z-score of dpERK with insulin 0.7; replicate 2, z-score of dpERK with insulin 0.61.
CG13442 (GeneID 37349) gave replicate 1, z-score of dpERK with insulin -0.85; replicate 2, z-score of dpERK with insulin -0.28.
After knock-down of CG5726 (GeneID 37082) the results were replicate 1, z-score of dpERK with insulin -0.86; replicate 2, z-score of dpERK with insulin 0.48.
After knock-down of Gr64f (GeneID 117477), the screen gave replicate 1, z-score of dpERK with insulin 0.66; replicate 2, z-score of dpERK with insulin 0.15.
After knock-down of CG15056 (GeneID 32824) the results were replicate 1, z-score of dpERK with insulin 0.05; replicate 2, z-score of dpERK with insulin 0.15.
After knock-down of CG2147 (GeneID 31759), the record shows replicate 1, z-score of dpERK with insulin -0.43; replicate 2, z-score of dpERK with insulin 0.16.
Silencing of CG33159 (GeneID 318901) resulted in: replicate 1, z-score of dpERK with insulin 0.39; replicate 2, z-score of dpERK with insulin 0.65.
Silencing of ARY (retired record) (GeneID 3355076) gave: replicate 1, z-score of dpERK with insulin -1; replicate 2, z-score of dpERK with insulin 0.01.
Silencing of Pus7 (GeneID 38969) resulted in: replicate 1, z-score of dpERK with insulin 0.58; replicate 2, z-score of dpERK with insulin 0.88.
CG13427 (GeneID 37316) scored replicate 1, z-score of dpERK with insulin -0.18; replicate 2, z-score of dpERK with insulin 0.35.
CG5276 (GeneID 41373) gave replicate 1, z-score of dpERK with insulin 0.94; replicate 2, z-score of dpERK with insulin 0.18.
Knock-down of CG3358 (GeneID 35604) gave: replicate 1, z-score of dpERK with insulin -0.02; replicate 2, z-score of dpERK with insulin -0.08.
Against comm2 (GeneID 39716) #1 the deposit lists replicate 1, z-score of dpERK with insulin -2.17; replicate 2, z-score of dpERK with insulin -0.77.
Knock-down of comm2 (GeneID 39716) #2 came out at: replicate 1, z-score of dpERK with insulin 0.46; replicate 2, z-score of dpERK with insulin 0.44.
Obp83b (GeneID 40738) showed replicate 1, z-score of dpERK with insulin 0.6; replicate 2, z-score of dpERK with insulin 0.49.
Against CG2816 (GeneID 33595) the deposit lists replicate 1, z-score of dpERK with insulin 0.34; replicate 2, z-score of dpERK with insulin 0.43.
Knock-down of zpg (GeneID 251414) came out at: replicate 1, z-score of dpERK with insulin 0.24; replicate 2, z-score of dpERK with insulin 0.31.
CG7857 (GeneID 39671) gave replicate 1, z-score of dpERK with insulin 0.37; replicate 2, z-score of dpERK with insulin 0.84.
After knock-down of kek2 (GeneID 34582), the screen gave replicate 1, z-score of dpERK with insulin 0.01; replicate 2, z-score of dpERK with insulin -0.42.
For Dhps (GeneID 38917), the entry reads replicate 1, z-score of dpERK with insulin 1.63; replicate 2, z-score of dpERK with insulin 0.08.
Against CG30269 (GeneID 37600), the values are replicate 1, z-score of dpERK with insulin 0.22; replicate 2, z-score of dpERK with insulin 0.49.
Against ebo (GeneID 47141) the deposit lists replicate 1, z-score of dpERK with insulin 0.9; replicate 2, z-score of dpERK with insulin 0.35.
CG13193 (GeneID 36256) gave replicate 1, z-score of dpERK with insulin 0.52; replicate 2, z-score of dpERK with insulin 0.91.
sgll (GeneID 40925) scored replicate 1, z-score of dpERK with insulin -0.39; replicate 2, z-score of dpERK with insulin 0.16.
For rpk (GeneID 40580) #1, the entry reads replicate 1, z-score of dpERK with insulin -0.25; replicate 2, z-score of dpERK with insulin -0.05.
Silencing of rpk (GeneID 40580) #2 gave: replicate 1, z-score of dpERK with insulin 0.74; replicate 2, z-score of dpERK with insulin 0.9.
Tom20 (GeneID 40189) showed replicate 1, z-score of dpERK with insulin 0.1; replicate 2, z-score of dpERK with insulin 0.12.
Knock-down of wcy (GeneID 32690) resulted in: replicate 1, z-score of dpERK with insulin 0.6; replicate 2, z-score of dpERK with insulin -1.38.
Depletion of CG13048 (GeneID 39789) resulted in: replicate 1, z-score of dpERK with insulin 0.05; replicate 2, z-score of dpERK with insulin 0.25.
With knock-down of CG11262 (GeneID 39471) the results were replicate 1, z-score of dpERK with insulin 0.38; replicate 2, z-score of dpERK with insulin -0.12.
Knock-down of CG8814 (GeneID 33492) came out at: replicate 1, z-score of dpERK with insulin 0.77; replicate 2, z-score of dpERK with insulin -0.07.

Part of the list above, limited to “replicate 1, z-score of dpERK with insulin”:
comm2 (GeneID 39716) #1 = -2.17
comm2 (GeneID 39716) #2 = 0.46
